These are yes or no findings as the source states them, for the method shown. In cells and extracts the contact can be indirect. Some results given as binding are weak or reduced against the parent protein; the word gives no strength.
Target: HA-tagged ICN1 (UniProt P46531)
Assay: anti-FLAG co-immunoprecipitation from co-transfected COS7 cell lysates, western blot with anti-HA

Protein sequences, listed by entry. Tags and fused reporters are not part of them. Residues count along the entry.
UniProt P46531, residues 1770-2555: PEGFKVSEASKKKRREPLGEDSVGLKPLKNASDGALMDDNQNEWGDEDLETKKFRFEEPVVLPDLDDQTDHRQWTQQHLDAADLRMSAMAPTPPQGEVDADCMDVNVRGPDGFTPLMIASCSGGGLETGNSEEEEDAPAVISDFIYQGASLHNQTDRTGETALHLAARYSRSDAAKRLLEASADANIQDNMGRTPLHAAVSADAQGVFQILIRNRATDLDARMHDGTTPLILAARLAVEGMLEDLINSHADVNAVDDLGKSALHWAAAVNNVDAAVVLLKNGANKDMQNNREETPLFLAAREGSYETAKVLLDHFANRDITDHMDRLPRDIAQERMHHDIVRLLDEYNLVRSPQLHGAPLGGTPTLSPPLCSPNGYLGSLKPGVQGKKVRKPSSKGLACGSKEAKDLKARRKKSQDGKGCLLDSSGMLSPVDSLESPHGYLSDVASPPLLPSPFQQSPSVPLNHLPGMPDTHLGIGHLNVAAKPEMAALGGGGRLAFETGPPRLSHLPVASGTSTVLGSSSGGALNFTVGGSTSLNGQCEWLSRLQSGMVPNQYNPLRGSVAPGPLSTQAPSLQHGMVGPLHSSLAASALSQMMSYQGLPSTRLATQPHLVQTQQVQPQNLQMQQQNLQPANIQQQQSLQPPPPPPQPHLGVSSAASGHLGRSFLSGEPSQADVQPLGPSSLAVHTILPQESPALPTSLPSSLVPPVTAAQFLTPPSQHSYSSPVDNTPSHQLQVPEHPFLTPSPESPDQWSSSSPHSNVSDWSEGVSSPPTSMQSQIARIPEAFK
UniProt Q8IZL2: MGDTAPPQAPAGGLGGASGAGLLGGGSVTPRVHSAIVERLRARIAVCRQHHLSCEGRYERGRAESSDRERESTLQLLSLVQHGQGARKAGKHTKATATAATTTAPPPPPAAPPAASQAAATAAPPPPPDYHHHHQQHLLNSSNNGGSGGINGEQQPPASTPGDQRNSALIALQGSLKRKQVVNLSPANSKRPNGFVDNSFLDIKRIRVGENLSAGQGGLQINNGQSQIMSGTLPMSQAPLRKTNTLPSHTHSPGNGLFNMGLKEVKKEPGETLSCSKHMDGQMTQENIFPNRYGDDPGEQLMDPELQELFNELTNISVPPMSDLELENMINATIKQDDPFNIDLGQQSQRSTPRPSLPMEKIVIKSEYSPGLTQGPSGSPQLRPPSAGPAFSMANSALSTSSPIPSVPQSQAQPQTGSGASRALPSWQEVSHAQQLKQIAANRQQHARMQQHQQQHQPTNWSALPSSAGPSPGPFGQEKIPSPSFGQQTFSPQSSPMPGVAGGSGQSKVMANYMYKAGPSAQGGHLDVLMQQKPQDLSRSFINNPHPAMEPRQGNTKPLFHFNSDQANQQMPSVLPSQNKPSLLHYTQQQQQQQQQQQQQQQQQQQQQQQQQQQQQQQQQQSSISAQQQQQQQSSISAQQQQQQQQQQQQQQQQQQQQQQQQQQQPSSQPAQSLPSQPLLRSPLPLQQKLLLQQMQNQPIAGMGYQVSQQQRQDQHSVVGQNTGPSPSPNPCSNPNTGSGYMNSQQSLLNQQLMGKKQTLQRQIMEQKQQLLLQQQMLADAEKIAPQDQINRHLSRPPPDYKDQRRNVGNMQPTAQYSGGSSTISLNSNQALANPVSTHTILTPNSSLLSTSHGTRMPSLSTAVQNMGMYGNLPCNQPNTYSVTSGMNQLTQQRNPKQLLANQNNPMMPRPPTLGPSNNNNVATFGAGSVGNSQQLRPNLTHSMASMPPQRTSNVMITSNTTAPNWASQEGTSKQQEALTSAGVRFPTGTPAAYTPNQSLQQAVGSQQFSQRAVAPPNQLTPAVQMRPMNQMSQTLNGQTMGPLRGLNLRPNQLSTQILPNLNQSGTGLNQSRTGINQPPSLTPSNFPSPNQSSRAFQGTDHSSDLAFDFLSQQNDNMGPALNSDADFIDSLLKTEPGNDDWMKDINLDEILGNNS

binding: binds
Substance: FLAG-tagged MAML2 (from UniProt Q8IZL2 1-1156)
